PubChem BioAssay AID1671195 | Yale University | 2021
The whole screen tested about 22,000 reagents; below is a random part of them. In the full data, about 1,510 (6.9%) got an active call. 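Active includes knockdowns raising or lowering LDL uptake; positive z-scores mean more uptake, negative mean less.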

- Assay: 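Regulators of LDL receptor activity judged by labelled LDL uptake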 (primary screen)
- System: human Huh7 hepatoma cells
- Reagent: siRNA pool against human genes, 18 nM
- Timing: about 2 to 2.5 days of knockdown, then 8 h LDL uptake
- Conditions: DiI-labelled LDL at 30 µg/ml for 8 h, in lipoprotein-deficient serum medium
- Read-out: 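Fluorescent LDL signal imaged in cells, scaled to the plate median, robust z-score for each replicate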
- Reading the numbers: robust z-score: higher = more LDL uptake after knockdown
- Hit rule: 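a gene counts as active if at least two replicate z-scores exceed ±2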

After knock-down of TDRD3 the results were robust z-score, replicate 1 = 0.554; robust z-score, replicate 2 = 1.1; robust z-score, replicate 3 = 1.6; inactive.
After knock-down of ENY2, the record shows robust z-score, replicate 1 = 0.961; robust z-score, replicate 2 = 0.546; robust z-score, replicate 3 = -0.381; inactive.
Depletion of ZNF746 gave: robust z-score, replicate 1 = -0.531; robust z-score, replicate 2 = -0.929; robust z-score, replicate 3 = -0.0598; inactive.
Knock-down of SPC25 resulted in: robust z-score, replicate 1 = -0.862; robust z-score, replicate 2 = -0.249; robust z-score, replicate 3 = -0.0937; inactive.
SAP30L-AS1 gave robust z-score, replicate 1 = -1.26; robust z-score, replicate 2 = -1.19; robust z-score, replicate 3 = -1.93; inactive.
After knock-down of GYG2, the record shows robust z-score, replicate 1 = 0.647; robust z-score, replicate 2 = -0.0253; robust z-score, replicate 3 = 0.272; inactive.
ANO7L1 scored robust z-score, replicate 1 = 1.71; robust z-score, replicate 2 = 1; robust z-score, replicate 3 = 1.45; inactive.
Depletion of PPP1R12A gave: robust z-score, replicate 1 = 1.36; robust z-score, replicate 2 = 1.22; robust z-score, replicate 3 = 2.2; inactive.
After knock-down of OR5AR1, the screen gave robust z-score, replicate 1 = 1.47; robust z-score, replicate 2 = 1.62; robust z-score, replicate 3 = 1.25; inactive.
For HERC3 the deposit lists robust z-score, replicate 1 = -1.43; robust z-score, replicate 2 = -1.23; robust z-score, replicate 3 = -1.2; inactive.
Against LGALS2 the deposit lists robust z-score, replicate 1 = 1.15; robust z-score, replicate 2 = 1.05; robust z-score, replicate 3 = 0.527; inactive.
METRNL gave robust z-score, replicate 1 = -0.986; robust z-score, replicate 2 = -0.589; robust z-score, replicate 3 = -0.695; inactive.

3 of these entries, reformatted:
| target | robust z-score, replicate 1 | robust z-score, replicate 2 | robust z-score, replicate 3 | Outcome |
| --- | --- | --- | --- | --- |
| ENY2 | 0.961 | 0.546 | -0.381 | inactive |
| ZNF746 | -0.531 | -0.929 | -0.0598 | inactive |
| SPC25 | -0.862 | -0.249 | -0.0937 | inactive |

Additional entries:
Depletion of ARPIN resulted in: robust z-score, replicate 1 = 0.0343; robust z-score, replicate 2 = 0.283; robust z-score, replicate 3 = -0.0411; inactive.
Silencing of SORCS1 resulted in: robust z-score, replicate 1 = 1.84; robust z-score, replicate 2 = 1.56; robust z-score, replicate 3 = -2.68; inactive.
Knock-down of MSX1 gave: robust z-score, replicate 1 = 0.116; robust z-score, replicate 2 = 0.581; robust z-score, replicate 3 = 0.732; inactive.
Against DNAH11, the entry reads robust z-score, replicate 1 = 0.824; robust z-score, replicate 2 = 0.62; robust z-score, replicate 3 = 1.56; inactive.
Knock-down of PDE9A resulted in: robust z-score, replicate 1 = -0.854; robust z-score, replicate 2 = -0.989; robust z-score, replicate 3 = -1.06; inactive.
With knock-down of LOC389771 (retired record), the record shows robust z-score, replicate 1 = -0.696; robust z-score, replicate 2 = -0.641; robust z-score, replicate 3 = -1.29; inactive.
Against SERPINA5, the values are robust z-score, replicate 1 = 2.07; robust z-score, replicate 2 = 1.14; robust z-score, replicate 3 = 2.36; active.
Depletion of DYNLT5 resulted in: robust z-score, replicate 1 = 0.0893; robust z-score, replicate 2 = 0.576; robust z-score, replicate 3 = 0.204; inactive.
Depletion of PRDM16 gave: robust z-score, replicate 1 = 0.914; robust z-score, replicate 2 = 1.32; robust z-score, replicate 3 = 1.97; inactive.
After knock-down of GYPC, the record shows robust z-score, replicate 1 = 0.928; robust z-score, replicate 2 = 1.87; robust z-score, replicate 3 = 1.25; inactive.
Against LOC441305 (retired record), the values are robust z-score, replicate 1 = -0.462; robust z-score, replicate 2 = -0.705; robust z-score, replicate 3 = -0.612; inactive.
With knock-down of CMAS, the screen gave robust z-score, replicate 1 = 1.56; robust z-score, replicate 2 = 1.6; robust z-score, replicate 3 = 2.89; inactive.
After knock-down of NKAPP1, the screen gave robust z-score, replicate 1 = -1.37; robust z-score, replicate 2 = -1.35; robust z-score, replicate 3 = -0.555; inactive.
After knock-down of LOC441821 (retired record) the results were robust z-score, replicate 1 = -0.681; robust z-score, replicate 2 = -0.0892; robust z-score, replicate 3 = -0.439; inactive.
Knock-down of GBP6 gave: robust z-score, replicate 1 = 0.747; robust z-score, replicate 2 = 0.365; robust z-score, replicate 3 = 1.75; inactive.
Knock-down of CUZD1 resulted in: robust z-score, replicate 1 = 1.29; robust z-score, replicate 2 = -0.463; robust z-score, replicate 3 = 1.16; inactive.
For CLIP3 the deposit lists robust z-score, replicate 1 = -0.624; robust z-score, replicate 2 = 0.113; robust z-score, replicate 3 = -0.954; inactive.
Silencing of NCBP3 resulted in: robust z-score, replicate 1 = -2.04; robust z-score, replicate 2 = -1.53; robust z-score, replicate 3 = -2.49; active.
